Measured values taken from PMC11830769.
These are yes or no findings as the source states them, for the method shown. Binding seen in cells or lysates may run through a third protein. Some results given as binding are weak or reduced against the parent protein; the word gives no strength. Sequences can lack the tags named with a protein.

Amino acid sequences for entries named in this document (tags omitted).
UniProt O75838: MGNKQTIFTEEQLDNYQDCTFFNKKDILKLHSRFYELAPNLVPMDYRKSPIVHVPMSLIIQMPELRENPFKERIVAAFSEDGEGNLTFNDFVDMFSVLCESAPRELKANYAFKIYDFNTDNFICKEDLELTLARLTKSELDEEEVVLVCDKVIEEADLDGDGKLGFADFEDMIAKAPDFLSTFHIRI

Target: T1, human ANO1 (TMEM16A; cDNA clone IMAGE:4837404, 695 amino acids) with an HA-tag (human) (UniProt Q5XXA6)
T1 sequence: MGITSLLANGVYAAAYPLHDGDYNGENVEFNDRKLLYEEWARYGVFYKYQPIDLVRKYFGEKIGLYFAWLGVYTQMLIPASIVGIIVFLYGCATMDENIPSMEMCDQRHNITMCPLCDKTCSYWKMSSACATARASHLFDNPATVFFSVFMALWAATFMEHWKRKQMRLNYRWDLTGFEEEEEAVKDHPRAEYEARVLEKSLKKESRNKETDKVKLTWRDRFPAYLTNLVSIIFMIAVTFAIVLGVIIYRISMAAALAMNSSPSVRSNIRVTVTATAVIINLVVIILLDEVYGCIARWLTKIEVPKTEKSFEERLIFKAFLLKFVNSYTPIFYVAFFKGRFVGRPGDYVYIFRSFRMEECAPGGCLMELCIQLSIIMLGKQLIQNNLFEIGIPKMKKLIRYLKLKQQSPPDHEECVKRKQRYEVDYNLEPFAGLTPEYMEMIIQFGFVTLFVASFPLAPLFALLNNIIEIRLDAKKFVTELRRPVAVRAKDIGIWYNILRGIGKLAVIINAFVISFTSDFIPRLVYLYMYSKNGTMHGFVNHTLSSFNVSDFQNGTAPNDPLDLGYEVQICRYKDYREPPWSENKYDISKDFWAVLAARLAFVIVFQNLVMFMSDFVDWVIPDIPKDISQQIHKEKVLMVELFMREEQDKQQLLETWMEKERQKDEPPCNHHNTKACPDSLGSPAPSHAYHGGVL
Experiment: co-IP; transfected HEK293T cells lysed in TAP buffer (20 mM Tris-HCl pH 7.5, 150 mM NaCl, 0.5% NP-40, 1 mM EDTA); supernatant incubated with anti-HA agarose affinity gel 4 h at 4 °C; beads washed 3 times with TAP buffer; SDS-PAGE and immunoblot

binding: binds
Substance: human CIB2 (from UniProt O75838 1-187)
